For at least one compound, name, drawing or mass did not settle the structure.
Columns and labels:
Format in all cases: cell-based
[1] = test system: IR-induced senescent [SEN(IR)] cells; experiment: Rescue of RSL3-induced ferroptosis in IR-induced senescent cells (CCK8 survival)
Experimental: Non-senescent (NS: mock irradiated) or IR-induced senescent [SEN(IR)] cells were treated 10 days after irradiation with […] RSL3 and the indicated ferroptosis antagonist, followed by cell survival measurement by CCK8 assay. A. Cells were treated with ferrostatin-1 (FSN1—1 μM) at the same time as RSL3. B. Cells were given the ALOX5 and ALOX15 inhibitor zileuton (Zil—50 μM) at the same time as RSL3. C. Cells were given iron chelators deferoxamine (DFX—25 μM) or salicylaldehyde isonicotinoyl hydrazine (SIH—100 μM) at the same time as RSL3. D. Cells were given ACSL4 inhibitors rosiglitazone (ROSI—100 μM) or PRGL493 (PRGL—100 μM) for 72 h prior to RSL3. ***=p<0.001
The inventor next sought to further elucidate the potential mechanisms for induction of ferroptosis in senescent cells by the disclosed senolytic drugs. The inventor rescued ferroptosis in senescent cells induced by contacting the cells with RSL3 and ferrostatin-1 (FSN1), which inhibits lipid peroxidation (FIG. 6A), zileuton (5- and 15-lipoxygenase inhibitor), which protects cells from lipoxygenase-induced membrane peroxidation (FIG. 6B), iron chelators deferoxamine or salicylaldehyde isonicotinoyl hydrazine (FIG. 6C), and ACSL4 inhibitors rosiglitazone or PRGL493 (FIG. 6D).

senescent cells = experiment: Ferroptosis induction in senescent relative to non-senescent cells (general statement); details: general statement in description
From the text: While many of these oxylipins can drive pathology, such as in the case of pulmonary fibrosis, this may also result in a vulnerability that allows them to be targeted for elimination. Among the oxylipin synthesis enzymes elevated during senescence are arachidonate 5-, 12-, 15-, and 15B-lipoxygenases (ALOX5, 12, 15, and 15B), as well as ALOX5 activating protein (ALOX5AP). These lipoxygenases produce oxylipins, such as the leukotrienes, by acting on free arachidonic acid inside of the cell. However, these enzymes may also peroxidize arachidonic acid that is bound (esterified) in the plasma membrane. Lipid peroxides then react with labile iron in the cytosol via Fenton reaction to result in an exponential chain reaction of lipid peroxidation, ultimately resulting in a form of cell death known as “ferroptosis”. […] Other compounds, such as artemisinin and its derivatives interact with labile iron to increase lipid peroxidation. Since senescent cells also show elevated levels of labile iron, in addition to lipoxygenases, these cells are especially sensitive to induction of ferroptosis. […] As used herein, “senolytic” refers to the property of a molecule, compound, or composition to selectively kill senescent cells. Thus, ML-210, RSL3, FIN56, erastin, artemisinin, and related molecules are useful for the treatment of chronic degenerative diseases that are characterized by cellular senescence.

[2] = test system: senescent cells [SEN(DOXO)]; experiment: Cell survival (CCK8) of doxorubicin-induced senescent cells vs non-senescent controls; details: SEN(DOXO) (250 nM doxorubicin 24 h) vs NS (DMSO); drug given 10 days later for 24 h; FIG. 5B-C
Experimental: A. RNA levels of GPX4 in cells induced to senesce by ionizing radiation (IR), mitochondrial dysfunction (MiDAS), or lentiviral overexpression of […] [SEN(RAS)]. Non-senescent cells induced by either mock treatment (NS) or empty lentiviral vector (Vector) served as controls. RNA levels measure by quantitative RT-PCR and normalized to actin. B—C. Cells were induced to senesce by 24 h of treatment with 250 nM doxorubicin [SEN(DOXO)] or control [NS (DMSO)], and 10 days later were given the indicated drug doses for 24 h. D. Cells were induced to senesce with 10 Gy of IR and 10 days later given the indicated drug doses for 24 h. E-F. Cells were induced to senesce with 10 Gy of IR and 10 days later given the indicated drug doses for 72 h. Cell survival was then measured by colorimetric assay (CCK8). *=p<0.01 Preliminary data: Senescent cells appear primed to undergo ferroptosis. Not only do they elevate ALOX enzymes (FIG. 1A) and PUFA levels (FIG. 1B), but the lipid hydroxide products of these enzymes are elevated (FIG. 1C), as are byproducts of lipid peroxidation, (e.g. 4-HNE and 4-HDDE (FIG. 1D)). Lipid peroxidation-sensitive probes, e.g., C11-BODIPY, indicate increased lipid peroxidation during senescence. Furthermore, senescent cells accumulate iron in their cytosol. […]

[3] = test system: senescent cells induced with 10 Gy of IR; experiment: Cell survival (CCK8) of IR-induced senescent cells vs non-senescent controls; details: 10 Gy IR; drug given 10 days later for 72 h; several concentrations; FIG. 5E-5F
Experimental: A. RNA levels of GPX4 in cells induced to senesce by ionizing radiation (IR), mitochondrial dysfunction (MiDAS), or lentiviral overexpression of […] [SEN(RAS)]. Non-senescent cells induced by either mock treatment (NS) or empty lentiviral vector (Vector) served as controls. RNA levels measure by quantitative RT-PCR and normalized to actin. B—C. Cells were induced to senesce by 24 h of treatment with 250 nM doxorubicin [SEN(DOXO)] or control [NS (DMSO)], and 10 days later were given the indicated drug doses for 24 h. D. Cells were induced to senesce with 10 Gy of IR and 10 days later given the indicated drug doses for 24 h. E-F. Cells were induced to senesce with 10 Gy of IR and 10 days later given the indicated drug doses for 72 h. Cell survival was then measured by colorimetric assay (CCK8). *=p<0.01
Preliminary data: Senescent cells appear primed to undergo ferroptosis. Not only do they elevate ALOX enzymes (FIG. 1A) and PUFA levels (FIG. 1B), but the lipid hydroxide products of these enzymes are elevated (FIG. 1C), as are byproducts of lipid peroxidation, (e.g. 4-HNE and 4-HDDE (FIG. 1D)). Lipid peroxidation-sensitive probes, e.g., C11-BODIPY, indicate increased lipid peroxidation during senescence. Furthermore, senescent cells accumulate iron in their cytosol. […]

## CN(CCOc1ccc(CC2SC(=O)NC2=O)cc1)c1ccccn1 (centres unmarked) [rosiglitazone]
[1]; given for 72 h prior to 0.1 mM RSL3, ROSI 100 μM, PRGL 100 μM, FIG. 6D
  rescue of RSL3-induced ferroptosis in senescent cells (cell survival, CCK8): rescued induction of ferroptosis in senescent cells

## CCOc1ccccc1-n1c(C(C)N2CCN(C(=O)COc3ccc(Cl)cc3)CC2)nc2ccccc2c1=O (centres unmarked) [erastin]
Senescent cells
  selective induction of ferroptosis in senescent cells relative to non-senescent cells: selectively induces ferroptosis in senescent cells relative to non-senescent cells
[2]
  selective killing of senescent cells (cell survival, CCK8): selectively killed senescent cells

## CO[C@H]1O[C@@H]2O[C@@]3(C)CC[C@H]4[C@H](C)CC[C@@H]([C@H]1C)[C@@]24OO3 [artemether]
[3]
  cell death in senescent cells vs control cells (cell survival, CCK8): induced significantly more cell death in senescent cells than control cells

## CC(=O)N(O)CCCCCNC(=O)CCC(=O)N(O)CCCCCNC(=O)CCC(=O)N(O)CCCCCN [deferoxamine]
[1]; given at the same time as 0.1 mM RSL3, FSN1 1 μM, Zil 50 μM, DFX 25 μM, SIH 100 μM, FIG. 6A-C
  rescue of RSL3-induced ferroptosis in senescent cells (cell survival, CCK8): rescued induction of ferroptosis in senescent cells

Reference: patent publication US20250064775A1, “SELECTIVE ELIMINATION OF SENESCENT CELLS BY FERROPTOSIS INDUCTION” (Trustees of Tufts College, priority 2022, published 2025)
